# Test results reported in publication PMC9870992.
# By UniProt entry, the sequences of proteins in these tests, tags left out.
# UniProt P78347: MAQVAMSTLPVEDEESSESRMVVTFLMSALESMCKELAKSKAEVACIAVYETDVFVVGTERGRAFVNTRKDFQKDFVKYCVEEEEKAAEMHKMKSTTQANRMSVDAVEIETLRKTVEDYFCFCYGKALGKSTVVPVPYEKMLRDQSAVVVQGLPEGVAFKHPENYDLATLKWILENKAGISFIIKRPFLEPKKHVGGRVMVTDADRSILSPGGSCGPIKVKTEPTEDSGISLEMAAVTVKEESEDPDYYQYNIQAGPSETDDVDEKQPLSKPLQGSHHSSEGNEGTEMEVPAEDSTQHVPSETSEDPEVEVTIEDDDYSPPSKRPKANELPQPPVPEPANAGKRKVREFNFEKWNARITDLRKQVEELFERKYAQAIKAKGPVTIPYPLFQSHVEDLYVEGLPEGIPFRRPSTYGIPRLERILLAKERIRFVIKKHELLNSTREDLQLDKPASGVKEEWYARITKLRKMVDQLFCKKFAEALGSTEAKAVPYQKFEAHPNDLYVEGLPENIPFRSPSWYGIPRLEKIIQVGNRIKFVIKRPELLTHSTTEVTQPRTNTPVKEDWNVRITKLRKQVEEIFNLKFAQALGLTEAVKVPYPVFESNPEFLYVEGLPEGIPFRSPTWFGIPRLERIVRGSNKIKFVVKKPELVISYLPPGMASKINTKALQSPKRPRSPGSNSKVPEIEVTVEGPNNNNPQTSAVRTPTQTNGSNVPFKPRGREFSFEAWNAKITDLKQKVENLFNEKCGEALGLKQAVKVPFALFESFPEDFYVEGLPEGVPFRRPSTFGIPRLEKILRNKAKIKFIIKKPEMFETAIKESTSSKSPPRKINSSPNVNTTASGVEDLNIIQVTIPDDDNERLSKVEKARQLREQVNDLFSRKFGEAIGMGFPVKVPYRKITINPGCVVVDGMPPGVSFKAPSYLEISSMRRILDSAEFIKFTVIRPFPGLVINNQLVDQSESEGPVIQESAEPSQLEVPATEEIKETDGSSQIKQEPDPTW
# No constants are given. Whether binding was seen depends on the method and setting. Binding seen in cells or lysates may run through a third protein. Some entries that bind do so weakly or less than the wild type. Sequences can lack the tags named with a protein.
# B1: TRIM24-Myc (protein, UniProt O15164 1-1050)
# chain: MEVAVEKAVAAAAAASAAASGGPSAAPSGENEAESRQGPDSERGGEAARLNLLDTCAVCHQNIQSRAPKLLPCLHSFCQRCLPAPQRYLMLPAPMLGSAETPPPVPAPGSPVSGSSPFATQVGVIRCPVCSQECAERHIIDNFFVKDTTEVPSSTVEKSNQVCTSCEDNAEANGFCVECVEWLCKTCIRAHQRVKFTKDHTVRQKEEVSPEAVGVTSQRPVFCPFHKKEQLKLYCETCDKLTCRDCQLLEHKEHRYQFIEEAFQNQKVIIDTLITKLMEKTKYIKFTGNQIQNRIIEVNQNQKQVEQDIKVAIFTLMVEINKKGKALLHQLESLAKDHRMKLMQQQQEVAGLSKQLEHVMHFSKWAVSSGSSTALLYSKRLITYRLRHLLRARCDASPVTNNTIQFHCDPSFWAQNIINLGSLVIEDKESQPQMPKQNPVVEQNSQPPSGLSSNQLSKFPTQISLAQLRLQHMQQQVMAQRQQVQRRPAPVGLPNPRMQGPIQQPSISHQQPPPRLINFQNHSPKPNGPVLPPHPQQLRYPPNQNIPRQAIKPNPLQMAFLAQQAIKQWQISSGQGTPSTTNSTSSTPSSPTITSAAGYDGKAFGSPMIDLSSPVGGSYNLPSLPDIDCSSTIMLDNIVRKDTNIDHGQPRPPSNRTVQSPNSSVPSPGLAGPVTMTSVHPPIRSPSASSVGSRGSSGSSSKPAGADSTHKVPVVMLEPIRIKQENSGPPENYDFPVVIVKQESDEESRPQNANYPRSILTSLLLNSSQSSTSEETVLRSDAPDSTGDQPGLHQDNSSNGKSEWLDPSQKSPLHVGETRKEDDPNEDWCAVCQNGGELLCCEKCPKVFHLSCHVPTLTNFPSGEWICTFCRDLSKPEVEYDCDAPSHNSEKKKTEGLVKLTPIDKRKCERLLLFLYCHEMSLAFQDPVPLTVPDYYKIIKNPMDLSTIKKRLQEDYSMYSKPEDFVADFRLIFQNCAEFNEPDSEVANAGIKLENYFEELLKNLYPEKRFPKPEFRNESEDNKFSDDSDDDFVQPRKKRLKSIEERQLLK
# Target: TFII-I-Flag (UniProt P78347)
# Experiment: co-IP; HEK293T co-transfected with TFII-I-Flag and TRIM24-Myc; 250 μg nuclear extract in Flag-IP Buffer (50 mM Tris-HCl pH 8.0, 90 mM NaCl, 1 mM EDTA, 1% Triton X-100); anti-Flag IP at 4 °C, protein A/G agarose; blot with Myc antibody
binder,measurement,value
B1,binding,binds
